From patent US20170165295A1, “COMPOSITION FOR PREVENTING, ALLEVIATING OR TREATING CONSTIPATION, CONTAINING HIGH HARDNESS MINERAL WATER PREPARED FROM DEEP OCEAN WATER OR DESALINATED GROUNDWATER” (ARIBIO INC., priority 2012, published 2017)

System: loperamide-induced constipated rats
Test: Gastrointestinal charcoal transit ratio in loperamide-induced constipated rats
Format: in vivo
Settings: at sacrifice after 6th administration; mean ± S.D. of nine rats
Description: 6-week-old rats (SLC, Japan) were used for an experiment after acclimatization to new environments for 7 days. Five rats were raised per cage at 20-25° C. and 45-50% humidity. The light-dark cycle was 12 hr: 12 hr, and water and food were freely available. The rats were classified into six groups (nine rats per group, a total of 54 rats) based on the body weight thereof. Specific groups are as follows:
Administration of Test Material Magnesium hydroxide (Mg(OH)2; MagMill™) was purchased from Samnam Pharm. In order to protect test materials from light and moisture, the test materials were stored in a refrigerator at 4° C. The mineral water was orally administered at 10 ml/kg for each time, at an interval of 6 hours (30 ml/kg/day), three times a day, for a total of six days. The administration for each time was conducted 1 hour after administration of loperamide 3 mg/kg. […]
The gastrointestinal propulsion of the charcoal meal was checked by the method disclosed in Sagar et al. BMC Complement Altern Med, 2005; 5:18, with minor modification. […] Thirty minutes after charcoal meal ingestion, the animals of each group were sacrificed, and the total small intestine length (from pyloric sphincter to appendix) and the charcoal meal transit distance were measured. The gastrointestinal charcoal transit ratio was calculated by equation 3 below: […]

Row | SMILES | Total small intestine length [cm]
1 | [Mg+2].[OH-].[OH-] [Mg(OH)2, Magnesium hydroxide] | 124.81 ± 6.10
2 | CN(C)C(=O)C(CCN1CCC(O)(c2ccc(Cl)cc2)CC1)(c1ccccc1)c1ccccc1 [Loperamide, loperamide hydrochloride] | 121.40 ± 2.90

Counter-ions that a name gives are not always drawn.
